According to US20230128499A1:
Changes are numbered by the printed parent chain. These are yes or no findings as the source states them, for the method shown. Some results given as binding are weak or reduced against the parent protein; the word gives no strength. Values belong to the binder of their own block, whether it stands above or below them.

By UniProt entry, the sequences of proteins in these tests, tags left out. Residues count along the entry.
UniProt Q02223, residues 1-54: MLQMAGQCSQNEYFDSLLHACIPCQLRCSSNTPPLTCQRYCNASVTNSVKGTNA

Legend:
[1] = target: BCMA (species not stated) (UniProt Q02223); assay: affinity maturation of PI-61; assay not described
[2] = target: BCMA (species not stated) (UniProt Q02223); assay: phage display; assay not described

binding [1]: binds
B6: anti-BCMA antibody H3-11 (antibody, V domains shown)
VH: QVQLQSSEGGVVQPGRSLRLSCAASGFTFSSYGMHWVRQAPGKGLEWVAVISYNDANKYYADSVKGRFTISRDNSKNTLYLQMNSLRAEDTAVYYCGGSGYELRDDYYGLDVWGQGTLVTVSS
VL: QSALTQPASVSGSPGQSITISCTGTSSDVGGYNYVSWYQQHPGKAPKLMIYEVSNRLRGVSNRFSGSKFGNTASLTISGLQAEDEADYYCSSYTSSSTLYVFGSGTKVTVL

binding [2]: binds
B9: anti-BCMA antibody PI-61 (antibody, V domains shown)
VH: B6 VH with S6E, E8G, N54D, D55G, A56S, E102A, R104H
VL: B6 VL with E52D, L57P, R58S, F69S

binding [1]: binds
B12: anti-BCMA antibody H3-10 (antibody, V domains shown)
VH: B6 VH with E8G, A56L, L103F, R104Q, D105G
VL: B6 VL

binding [1]: binds
B13: anti-BCMA antibody H3-9 (antibody, V domains shown)
VH: B6 VH with S6G, E8G, N54D, N57H, E102A, R104H, D106Q, Y108K, G109P, L110V
VL: B6 VL with D87Y

binding [1]: binds
B18: anti-BCMA antibody H3-12 (antibody, V domains shown)
VH: B6 VH with V2A, N54D, D55E, A56S, L103V, R104D, D105Q
VL: B6 VL

binding [1]: binds
B22: anti-BCMA antibody H3-13 (antibody, V domains shown)
VH: B6 VH with S6E, E8G, N54D, N57H, E102A, R104H, D106Q, Y108K, G109P, L110V
VL: B6 VL

binding [1]: binds
B23: anti-BCMA antibody H3-15 (antibody, V domains shown)
VH: B6 VH with S6G, E8G, F29V, N54D, N74S, E102A, L103Y, R104D, D105G
VL: B6 VL with R58G, T98A

binding [1]: binds
B26: anti-BCMA antibody H3-14 (antibody, V domains shown)
VH: B6 VH with S6G, E8G, N54D, N57H, E102A, R104H, D106Q, Y108K, G109P, L110V
VL: B6 VL with R58S, T98A

Further lines, the binder ahead of its results:

B1: anti-BCMA antibody AB3 (antibody, V domains shown)
VH: B6 VH with Q5V, S6E, E8G, F29V, N54T, D55G, A56S, E102A, R104H
VL: B6 VL with E52D, F69S, T98A
binding [1]: binds

B2: anti-BCMA antibody H2/L2-68 (antibody, V domains shown)
VH: B6 VH with V2A, N54R, D55G, A56F, E102A, R104H, L110Q
VL: B6 VL with E52D, R58S
binding [1]: binds

B3: anti-BCMA antibody H3-1 (antibody, V domains shown)
VH: B6 VH with S6G, E8G, N54D, N57H, E102A, R104H, D106Q, Y108K, G109P, L110V
VL: B6 VL
binding [1]: binds

B4: anti-BCMA antibody H3-4 (antibody, V domains shown)
VH: B6 VH with S6G, E8G, N54D, N57H, E102A, R104H, D106Q, Y108K, G109P, L110V
VL: B6 VL with T98A
binding [1]: binds

B5: anti-BCMA antibody H3-8 (antibody, V domains shown)
VH: B6 VH with V2A, S6G, N54D, N57H, E102A, R104H, D106Q, Y108K, G109P, L110V
VL: B6 VL
binding [1]: binds

B7: anti-BCMA antibody H2/L2-80 (antibody, V domains shown)
VH: B6 VH with E8G, N54T, D55G, A56S, E102A, R104H
VL: B6 VL with E52D, L57A, R58W, T98A
binding [1]: binds

B8: anti-BCMA antibody H2/L2-18 (antibody, V domains shown)
VH: B6 VH with V2A, S6G, E8G, N54K, D55G, A56S, N57H, E102A, R104H
VL: B6 VL with E52D, L57P, R58W
binding [1]: binds

B10: anti-BCMA antibody H2/L2-22 (antibody, V domains shown)
VH: B6 VH with V2A, N54H, D55G, A56S, E102A, R104H
VL: B6 VL with R58S
binding [1]: binds

B11: anti-BCMA antibody H3-3 (antibody, V domains shown)
VH: QVQLQSSGGGVVQPGRSLRLSCAASGFTVSSYGMHWVRQAPGKGLEWVAVISYSGSNKYYADSVKGRFTISRDNSKNTLYLQMNSLRAEDTAVYYCGGSGYALHDQYKPVDVWGQGTLVTVSS
VL: B6 VL
binding [1]: binds

B14: anti-BCMA antibody H2/L2-47 (antibody, V domains shown)
VH: B6 VH with N54K, D55G, A56S, E102A, R104H
VL: B6 VL with E52D, L57P, R58W
binding [1]: binds

B15: anti-BCMA antibody H2/L2-36 (antibody, V domains shown)
VH: B6 VH with V2A, E8G, N54K, D55G, A56S, E102A, R104H
VL: B6 VL
binding [1]: binds

B16: anti-BCMA antibody H2/L2-20 (antibody, V domains shown)
VH: B11 VH with V2A, S54T, Q106D, K108Y, P109G, V110L
VL: B6 VL with E52D, T98A
binding [1]: binds

B17: anti-BCMA antibody H3-2 (antibody, V domains shown)
VH: QAQLQESEGGVVQPGGSLRLSCAASGFTFSSYGMHWVRQAPGKGLEWVAVISYNDLNKYYADSVKGRFTISRDNSKNTLYLQMNSLRAEDTAVYYCGGSGYALHDFQDPTDVWGQGTLVTVSS
VL: B6 VL
binding [1]: binds

B19: anti-BCMA antibody H3-5 (antibody, V domains shown)
VH: B6 VH with S6G, E8G, N54T, D55G, E102N, R104H
VL: B6 VL with R58S
binding [1]: binds

B20: anti-BCMA antibody H3-6 (antibody, V domains shown)
VH: B11 VH with V2A, S6R, V29F, S54D, G55D, S56A, N57H
VL: B6 VL with T98A
binding [1]: binds

B21: anti-BCMA antibody H2/L2-83 (antibody, V domains shown)
VH: B6 VH with V2A, S6G, E8G, N54K, D55G, A56S, E102A, R104H
VL: B6 VL
binding [1]: binds

B24: anti-BCMA antibody H3-7 (antibody, V domains shown)
VH: B6 VH with F29L, N54T, D55G, A56S, L103F, R104H, D105E
VL: B6 VL
binding [1]: binds

B25: anti-BCMA antibody H2/L2-88 (antibody, V domains shown)
VH: B6 VH with N54K, D55G, A56S, E102A, R104H
VL: B6 VL with T98A
binding [1]: binds
